Some of the results follow.

By UniProt entry, the sequences of proteins in these tests, tags left out. Where a name states a change or a piece, a line headed by the entry shows the natural chain unless it says otherwise.
UniProt Q9HCU8: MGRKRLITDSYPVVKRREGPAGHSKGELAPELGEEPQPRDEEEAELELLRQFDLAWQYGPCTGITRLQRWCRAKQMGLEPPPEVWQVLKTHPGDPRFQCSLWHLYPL
UniProt Q9NP80: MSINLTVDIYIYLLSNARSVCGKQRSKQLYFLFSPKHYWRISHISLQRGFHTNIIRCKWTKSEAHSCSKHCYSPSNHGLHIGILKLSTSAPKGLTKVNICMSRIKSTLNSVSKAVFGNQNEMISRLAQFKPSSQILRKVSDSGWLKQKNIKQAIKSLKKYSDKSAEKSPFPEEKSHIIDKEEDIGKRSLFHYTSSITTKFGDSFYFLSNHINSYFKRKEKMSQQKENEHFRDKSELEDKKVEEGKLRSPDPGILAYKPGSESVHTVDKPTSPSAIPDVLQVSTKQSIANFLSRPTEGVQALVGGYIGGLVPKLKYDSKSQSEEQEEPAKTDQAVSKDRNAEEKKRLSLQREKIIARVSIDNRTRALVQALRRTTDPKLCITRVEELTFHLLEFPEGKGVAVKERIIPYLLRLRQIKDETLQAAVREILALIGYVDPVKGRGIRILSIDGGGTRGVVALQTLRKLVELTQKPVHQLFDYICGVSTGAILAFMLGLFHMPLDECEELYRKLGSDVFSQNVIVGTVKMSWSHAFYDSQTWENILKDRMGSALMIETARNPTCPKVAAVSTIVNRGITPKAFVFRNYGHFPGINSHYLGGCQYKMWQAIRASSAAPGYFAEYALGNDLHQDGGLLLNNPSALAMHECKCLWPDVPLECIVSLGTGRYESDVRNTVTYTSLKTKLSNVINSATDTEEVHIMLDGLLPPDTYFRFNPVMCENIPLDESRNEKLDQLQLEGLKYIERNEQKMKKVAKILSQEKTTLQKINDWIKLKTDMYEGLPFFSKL
UniProt Q9HBL7: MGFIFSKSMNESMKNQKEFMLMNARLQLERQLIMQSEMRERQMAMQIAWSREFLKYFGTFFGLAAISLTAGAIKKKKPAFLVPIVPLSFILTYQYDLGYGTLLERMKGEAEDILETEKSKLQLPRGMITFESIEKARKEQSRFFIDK
UniProt Q6EEV4: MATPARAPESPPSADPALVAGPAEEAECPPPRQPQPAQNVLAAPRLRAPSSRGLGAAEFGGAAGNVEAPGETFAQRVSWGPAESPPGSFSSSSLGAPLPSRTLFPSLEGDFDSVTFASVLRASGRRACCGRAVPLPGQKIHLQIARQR
UniProt P41247: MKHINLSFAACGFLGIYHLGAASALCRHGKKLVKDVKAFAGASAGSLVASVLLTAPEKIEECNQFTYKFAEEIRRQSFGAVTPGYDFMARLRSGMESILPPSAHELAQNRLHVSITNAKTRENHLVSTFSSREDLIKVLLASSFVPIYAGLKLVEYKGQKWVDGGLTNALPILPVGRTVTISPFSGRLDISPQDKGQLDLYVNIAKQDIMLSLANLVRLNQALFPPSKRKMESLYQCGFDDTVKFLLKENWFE
UniProt Q8TD55: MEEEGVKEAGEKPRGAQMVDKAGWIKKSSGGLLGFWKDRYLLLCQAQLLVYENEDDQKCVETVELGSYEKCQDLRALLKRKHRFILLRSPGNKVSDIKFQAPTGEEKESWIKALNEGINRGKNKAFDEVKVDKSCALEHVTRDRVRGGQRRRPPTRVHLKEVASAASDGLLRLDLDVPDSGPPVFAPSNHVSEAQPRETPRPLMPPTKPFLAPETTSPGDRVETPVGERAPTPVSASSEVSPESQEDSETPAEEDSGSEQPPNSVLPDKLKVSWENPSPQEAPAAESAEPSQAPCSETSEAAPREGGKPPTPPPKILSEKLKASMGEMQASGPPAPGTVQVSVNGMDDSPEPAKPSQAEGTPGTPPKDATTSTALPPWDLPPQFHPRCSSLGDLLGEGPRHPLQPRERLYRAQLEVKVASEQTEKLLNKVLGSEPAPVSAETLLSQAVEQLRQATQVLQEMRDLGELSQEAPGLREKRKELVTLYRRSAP
UniProt O00469: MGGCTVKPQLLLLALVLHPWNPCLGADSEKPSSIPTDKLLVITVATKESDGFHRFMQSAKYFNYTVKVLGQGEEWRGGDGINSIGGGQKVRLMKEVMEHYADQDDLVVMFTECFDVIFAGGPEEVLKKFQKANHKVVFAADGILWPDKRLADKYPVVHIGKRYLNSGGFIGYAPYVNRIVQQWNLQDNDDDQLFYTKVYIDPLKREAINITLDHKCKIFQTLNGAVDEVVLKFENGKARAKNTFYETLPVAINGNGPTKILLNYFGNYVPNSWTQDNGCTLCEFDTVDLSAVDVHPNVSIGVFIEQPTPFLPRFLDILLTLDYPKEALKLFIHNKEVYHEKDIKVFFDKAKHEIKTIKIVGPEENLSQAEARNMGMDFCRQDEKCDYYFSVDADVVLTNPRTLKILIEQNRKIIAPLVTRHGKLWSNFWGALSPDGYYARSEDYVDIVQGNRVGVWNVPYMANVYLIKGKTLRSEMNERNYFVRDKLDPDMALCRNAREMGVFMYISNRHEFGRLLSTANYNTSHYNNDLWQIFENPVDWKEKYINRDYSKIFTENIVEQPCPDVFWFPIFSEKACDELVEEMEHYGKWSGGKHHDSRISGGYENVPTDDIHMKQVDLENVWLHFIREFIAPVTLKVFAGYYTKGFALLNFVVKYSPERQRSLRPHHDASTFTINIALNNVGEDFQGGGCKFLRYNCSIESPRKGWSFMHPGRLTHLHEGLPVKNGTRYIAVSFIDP
UniProt Q96AD5: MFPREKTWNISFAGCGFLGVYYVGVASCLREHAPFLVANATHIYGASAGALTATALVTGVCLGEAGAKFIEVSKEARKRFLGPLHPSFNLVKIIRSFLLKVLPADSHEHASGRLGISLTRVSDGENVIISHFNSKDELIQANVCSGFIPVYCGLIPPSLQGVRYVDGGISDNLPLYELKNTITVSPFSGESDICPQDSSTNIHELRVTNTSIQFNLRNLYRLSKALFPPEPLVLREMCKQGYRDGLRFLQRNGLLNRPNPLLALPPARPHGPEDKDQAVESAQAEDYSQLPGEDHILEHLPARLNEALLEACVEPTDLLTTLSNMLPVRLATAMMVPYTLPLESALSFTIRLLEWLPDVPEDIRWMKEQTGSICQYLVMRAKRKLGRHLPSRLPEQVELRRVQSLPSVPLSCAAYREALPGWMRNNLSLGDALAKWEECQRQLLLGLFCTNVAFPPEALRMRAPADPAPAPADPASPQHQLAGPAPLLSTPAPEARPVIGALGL
UniProt P0CG38, whole entry, looked up: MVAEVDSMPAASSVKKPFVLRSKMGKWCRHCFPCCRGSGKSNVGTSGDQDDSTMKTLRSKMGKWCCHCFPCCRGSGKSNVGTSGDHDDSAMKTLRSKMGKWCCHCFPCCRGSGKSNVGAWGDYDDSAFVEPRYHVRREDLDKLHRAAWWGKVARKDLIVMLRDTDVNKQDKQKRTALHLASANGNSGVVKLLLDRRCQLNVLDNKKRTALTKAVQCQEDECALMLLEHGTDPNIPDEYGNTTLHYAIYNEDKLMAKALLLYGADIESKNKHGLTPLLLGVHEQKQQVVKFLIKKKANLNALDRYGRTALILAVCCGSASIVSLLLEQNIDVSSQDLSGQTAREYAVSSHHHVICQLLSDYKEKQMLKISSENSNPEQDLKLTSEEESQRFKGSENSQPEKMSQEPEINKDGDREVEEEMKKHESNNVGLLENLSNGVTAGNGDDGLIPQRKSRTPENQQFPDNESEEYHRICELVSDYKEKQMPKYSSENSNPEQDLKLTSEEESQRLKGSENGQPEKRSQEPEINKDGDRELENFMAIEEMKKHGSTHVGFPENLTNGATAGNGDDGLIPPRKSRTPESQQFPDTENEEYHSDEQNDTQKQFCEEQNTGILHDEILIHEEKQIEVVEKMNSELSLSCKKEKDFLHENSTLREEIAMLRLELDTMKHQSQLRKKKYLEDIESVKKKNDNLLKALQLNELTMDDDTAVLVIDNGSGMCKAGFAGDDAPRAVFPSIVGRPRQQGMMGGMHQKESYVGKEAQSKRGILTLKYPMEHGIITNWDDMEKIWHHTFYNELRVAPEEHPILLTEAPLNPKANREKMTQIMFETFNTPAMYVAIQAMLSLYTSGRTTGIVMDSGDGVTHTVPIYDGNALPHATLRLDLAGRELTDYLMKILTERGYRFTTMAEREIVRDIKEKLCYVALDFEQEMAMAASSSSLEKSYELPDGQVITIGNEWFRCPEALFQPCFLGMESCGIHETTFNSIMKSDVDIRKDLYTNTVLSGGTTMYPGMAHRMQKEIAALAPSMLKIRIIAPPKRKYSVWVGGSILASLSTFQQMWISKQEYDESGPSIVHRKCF
UniProt P0DPB5: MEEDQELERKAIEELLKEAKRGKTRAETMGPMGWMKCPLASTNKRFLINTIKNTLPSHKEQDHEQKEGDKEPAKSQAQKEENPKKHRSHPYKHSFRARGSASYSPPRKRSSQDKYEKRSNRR
UniProt Q8NEY8: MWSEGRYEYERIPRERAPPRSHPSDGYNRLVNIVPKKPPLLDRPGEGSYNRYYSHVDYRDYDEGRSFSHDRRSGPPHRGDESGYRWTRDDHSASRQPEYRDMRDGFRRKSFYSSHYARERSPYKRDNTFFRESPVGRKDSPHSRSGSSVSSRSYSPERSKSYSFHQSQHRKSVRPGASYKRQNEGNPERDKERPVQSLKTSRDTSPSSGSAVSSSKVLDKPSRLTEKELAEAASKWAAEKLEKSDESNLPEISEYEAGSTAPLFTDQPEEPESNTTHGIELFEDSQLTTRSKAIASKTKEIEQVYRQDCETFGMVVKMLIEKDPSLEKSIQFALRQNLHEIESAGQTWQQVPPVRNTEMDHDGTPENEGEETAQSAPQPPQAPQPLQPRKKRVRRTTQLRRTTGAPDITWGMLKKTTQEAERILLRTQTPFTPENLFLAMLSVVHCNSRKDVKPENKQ
UniProt P28340: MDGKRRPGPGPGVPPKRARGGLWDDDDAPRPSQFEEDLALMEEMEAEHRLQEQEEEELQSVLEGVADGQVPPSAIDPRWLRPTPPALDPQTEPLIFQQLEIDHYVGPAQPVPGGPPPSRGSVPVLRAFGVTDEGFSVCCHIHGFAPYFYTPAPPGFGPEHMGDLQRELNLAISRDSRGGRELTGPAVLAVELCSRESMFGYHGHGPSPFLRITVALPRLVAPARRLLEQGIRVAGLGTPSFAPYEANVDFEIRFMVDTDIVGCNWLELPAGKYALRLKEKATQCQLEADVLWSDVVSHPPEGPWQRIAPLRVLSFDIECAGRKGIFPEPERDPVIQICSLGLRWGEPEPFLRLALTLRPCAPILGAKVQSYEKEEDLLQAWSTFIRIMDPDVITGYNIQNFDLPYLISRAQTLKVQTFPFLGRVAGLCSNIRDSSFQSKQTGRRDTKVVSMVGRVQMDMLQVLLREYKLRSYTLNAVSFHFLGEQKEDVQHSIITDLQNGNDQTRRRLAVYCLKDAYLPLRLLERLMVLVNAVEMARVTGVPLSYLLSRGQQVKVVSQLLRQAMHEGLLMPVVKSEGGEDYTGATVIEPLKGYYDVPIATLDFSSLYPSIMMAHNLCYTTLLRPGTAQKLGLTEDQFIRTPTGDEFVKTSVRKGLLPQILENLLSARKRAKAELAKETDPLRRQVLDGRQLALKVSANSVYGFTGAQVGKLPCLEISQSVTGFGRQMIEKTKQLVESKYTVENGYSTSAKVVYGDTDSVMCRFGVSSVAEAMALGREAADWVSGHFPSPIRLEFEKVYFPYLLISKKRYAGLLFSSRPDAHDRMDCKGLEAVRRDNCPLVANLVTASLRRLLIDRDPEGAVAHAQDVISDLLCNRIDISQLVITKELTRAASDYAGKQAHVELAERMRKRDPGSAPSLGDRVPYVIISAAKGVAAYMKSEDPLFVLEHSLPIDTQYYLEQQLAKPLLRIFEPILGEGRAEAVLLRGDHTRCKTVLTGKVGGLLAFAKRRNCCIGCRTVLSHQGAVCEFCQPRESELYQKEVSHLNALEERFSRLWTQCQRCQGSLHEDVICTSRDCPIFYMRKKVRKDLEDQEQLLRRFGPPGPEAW

Assay in all cases: log2 fold change, soluble protein after heating vs DMSO (PISA); higher = thermal stabilisation; K562 cells, 10 uM, 30 min; active = over 0.2 and 3.5 SD of the protein, either way, in both replicates (recomputed)
Compound in experiment [1]: CC[C@@H]1C(=O)N(C)c2cnc(Nc3ccc(C(=O)NC4CCN(C)CC4)cc3OC)nc2N1C1CCCC1
The essentials: (§1)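 Soluble protein was defined as the supernatant after 21,000xg for 90 min. It came from K562 cells at 2×10^6 cells/mL given 10 μM compound for 30 min, heated in aliquots for 3 min across 48°C-58°C, pooled, and extracted in PBS with 0.5% NP-40 at 4°C, and was quantified by TMTpro 16plex LC-MS/MS with equalised channel sums. Thermal stability against control samples, from duplicates, is reported as log2 fold change.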

Compound in experiment [2]: CC[C@@H]1C(=O)N(C)c2cnc(Nc3ccc(C(=O)N[C@H]4CC[C@H](N5CCN(CC6CC6)CC5)CC4)cc3OC)nc2N1C(C)C [volasertib]
Summed up: as §1

Compound in experiment [3]: CCn1cc(-c2ccnc3[nH]c(-c4cccc(CN(C)C)c4)cc23)c(-c2ccc(NC(=O)N(C)C)cc2)n1
Summed up: as §1

Compound in experiment [4]: CN(C)CC(=O)Nc1ccc2[nH]c(=O)c3ccccc3c2c1
Summed up: as §1

Compound in experiment [5]: CN1C2=C(C3=C1C(=O)N(N=C3)CC4=CC(=CC=C4)N)SC(=C2)S(=O)C
The essentials: as §1

Compound in experiment [6]: CN1CCC(CNc2ccc3ncc(-c4cccc(OC(F)(F)F)c4)n3n2)CC1
Summed up:
as §1

Compound in experiment [7]: CC[C@H](C)N1C=C(C2=C(C=C(C=C21)C3=CN=C(C=C3)N4CCNCC4)C(=O)NCC5=C(C=C(NC5=O)C)C)C
The essentials:
as §1

Compound in experiment [8]: CN(CCOC1=CC=C(C=C1)C[C@H]2C(=O)NC(=O)S2)C3=CC=CC=N3 (racemic) [rosiglitazone]
The essentials: as §1

Compound in experiment [9]: CC[C@H](C)[C@@H](C(=O)N[C@@H]([C@@H](C)O)C(=O)N[C@@H](CC(C)C)C(=O)[C@]1(CO1)C)NC(=O)[C@H]([C@@H](C)CC)N(C)C(=O)C [epoxomicin]
Summed up: as §1

Compound in experiment [10]: CCn1c(C(=O)N(C2CC2)C2CC2)cc2c3c(ncn3C)c(Nc3cc(C)n(C)n3)nc21
The essentials:
as §1

With PNKP (UniProt Q96T60), the log2 fold change in experiment [1] was inactive: -0.061; in [2] it was inactive: -0.286; in [3], inactive: -0.033; in [4], inactive: 0.164; in experiment [5], inactive: 0; in experiment [6] it was inactive: -0.425.

As to POLD4 (UniProt Q9HCU8), the log2 fold change in experiment [1] is inactive: 0.196; in experiment [2] it was inactive: 0.228; in [7], inactive: -0.005; in experiment [3], inactive: -0.056; in experiment [8], inactive: 0.105; in experiment [5] it was inactive: 0.047. In experiment [6], the log2 fold change was inactive: -0.376.

Regarding PNPLA8 (UniProt Q9NP80), the log2 fold change in [1] was inactive: -0.048; in [2] it was inactive: -0.184; in [7], inactive: -0.07; in experiment [9], inactive: 0.112; in [3], inactive: -0.07; in experiment [4], inactive: 0.029. For the same target, the log2 fold change in experiment [5] is inactive: 0.003; in experiment [6], active: -0.262.

For PLGRKT (UniProt Q9HBL7), the log2 fold change in experiment [1] was inactive: -0.08; in experiment [7], inactive: -0.02; in experiment [9] it was inactive: -0.142; in experiment [10], inactive: 0.035; in [3], inactive: 0.075; in experiment [8], inactive: 0.055. The figures for the log2 fold change in experiment [5] and in experiment [6] were inactive: 0.008 and inactive: 0.019, respectively.

For the target POLR2M (UniProt Q6EEV4), the log2 fold change in experiment [1] is inactive: 0.13; in experiment [2], inactive: 0.009; in [7], inactive: 0.002; in experiment [9] it was inactive: 0.154; in experiment [4] it was inactive: 0.091; in [5] it was inactive: 0.105.

Consider PNPLA4 (UniProt P41247), for which the log2 fold change in experiment [1] was inactive: -0.152; in experiment [2], inactive: -0.093; in [7], inactive: -0.039; in experiment [4], inactive: -0.004; in experiment [5], inactive: 0.126.

POLR2J (UniProt P52435): the log2 fold change was inactive: -0.071 in experiment [1]; inactive: -0.062 in experiment [7]; inactive: 0.262 in experiment [9]; inactive: -0.151 in [10]; inactive: 0.019 in experiment [3]; inactive: 0.56 in experiment [8]. Also, the log2 fold change in experiment [5] was inactive: 0.057; in experiment [6], inactive: 0.083.

As to PLEKHO2 (UniProt Q8TD55), the log2 fold change is inactive: -0.157 in experiment [1]; inactive: -0.192 in experiment [2]; inactive: 0.104 in experiment [7]; inactive: -0.037 in experiment [10]; inactive: -0.055 in experiment [3]; inactive: -0.026 in [4]. For the same target, the log2 fold change in experiment [8] is inactive: 0.06; in [6] it was inactive: -0.121.

On to PLOD2 isoform 2 (UniProt O00469), for which the log2 fold change in experiment [1] was inactive: 0.111; in experiment [2] it was inactive: 0.01; in [5], inactive: 0.115.

With PLXND1 (UniProt Q9Y4D7), the log2 fold change is inactive: 0.122 in experiment [1], inactive: 0.005 in [4], inactive: 0.052 in [8] and inactive: -0.027 in [5].

As to PNPLA2 (UniProt Q96AD5), the log2 fold change in experiment [1] was inactive: 0.11; in [2], inactive: 0.126; in experiment [7], inactive: 0.015; in experiment [9], inactive: -0.041; in [3], inactive: 0.156; in [4], inactive: -0.044. Further, the log2 fold change in [5] was inactive: -0.025; in experiment [6] it was inactive: -0.068.

Take POLR2C (UniProt P19387): the log2 fold change in experiment [1] was inactive: 0.059; in experiment [2], inactive: -0.187; in experiment [7], inactive: 0.017; in experiment [9], inactive: 0.075; in experiment [4], inactive: 0.006; in experiment [5], inactive: -0.04.

In the case of POTEI (UniProt P0CG38), the log2 fold change is inactive: -0.009 in [1]; inactive: -0.009 in experiment [2]; inactive: -0.043 in experiment [7]; inactive: -0.039 in experiment [9]; inactive: 0.009 in [3]; inactive: -0.006 in experiment [4]. In addition, the log2 fold change is inactive: -0.06 in [5] and inactive: 0.035 in experiment [6].

As for POLR1D (UniProt P0DPB5), the log2 fold change in experiment [1] is inactive: 0.213; in experiment [2] it was inactive: 0; in experiment [9] it was inactive: -0.102; in experiment [10] it was inactive: 0.085; in [3] it was inactive: 0.138; in experiment [8] it was inactive: -0.11. Moreover, the log2 fold change in [6] was inactive: 0.085.

Consider POF1B isoform 1 (UniProt Q8WVV4), for which the log2 fold change was inactive: 1.32 in experiment [1]; inactive: 0.02 in [7]; inactive: 0.279 in experiment [4]; inactive: -0.003 in experiment [8]; inactive: -0.127 in experiment [5].

Regarding POLB (UniProt P06746), the log2 fold change is inactive: -0.127 in experiment [1]; inactive: -0.073 in experiment [2]; inactive: 0.077 in [7]; inactive: 0.043 in [9]; inactive: 0.111 in experiment [3]; inactive: 0.016 in experiment [5]. In addition, in experiment [6], the log2 fold change is inactive: -0.156.

Take PPHLN1 (UniProt Q8NEY8): the log2 fold change was inactive: 0.018 in [1]; inactive: -0.059 in experiment [2]; inactive: -0.051 in [10]; inactive: 0.109 in experiment [3]; inactive: -0.216 in experiment [4]; inactive: -0.04 in experiment [8]. The results for the log2 fold change in [5] and in experiment [6] were inactive: 0.216 and inactive: -0.163, respectively.

Turning to POLD1 (UniProt P28340), the log2 fold change was inactive: -0.061 in [1]; active: -0.239 in experiment [2]; inactive: 0.053 in [7]; inactive: 0.123 in [9]; inactive: -0.005 in experiment [3]; inactive: 0.027 in experiment [4]. In addition, the log2 fold change is inactive: -0.03 in experiment [5] and inactive: -0.171 in experiment [6].

Source of the values: the supplement of paper PMC10849652.
